Drawing on publication PMC12148026, this text covers binding for 1 substance.

The chains behind the UniProt entries cited, without tags or fusion partners. Where a name states a change or a piece, a line headed by the entry shows the natural chain unless it says otherwise.
UniProt Q96C45: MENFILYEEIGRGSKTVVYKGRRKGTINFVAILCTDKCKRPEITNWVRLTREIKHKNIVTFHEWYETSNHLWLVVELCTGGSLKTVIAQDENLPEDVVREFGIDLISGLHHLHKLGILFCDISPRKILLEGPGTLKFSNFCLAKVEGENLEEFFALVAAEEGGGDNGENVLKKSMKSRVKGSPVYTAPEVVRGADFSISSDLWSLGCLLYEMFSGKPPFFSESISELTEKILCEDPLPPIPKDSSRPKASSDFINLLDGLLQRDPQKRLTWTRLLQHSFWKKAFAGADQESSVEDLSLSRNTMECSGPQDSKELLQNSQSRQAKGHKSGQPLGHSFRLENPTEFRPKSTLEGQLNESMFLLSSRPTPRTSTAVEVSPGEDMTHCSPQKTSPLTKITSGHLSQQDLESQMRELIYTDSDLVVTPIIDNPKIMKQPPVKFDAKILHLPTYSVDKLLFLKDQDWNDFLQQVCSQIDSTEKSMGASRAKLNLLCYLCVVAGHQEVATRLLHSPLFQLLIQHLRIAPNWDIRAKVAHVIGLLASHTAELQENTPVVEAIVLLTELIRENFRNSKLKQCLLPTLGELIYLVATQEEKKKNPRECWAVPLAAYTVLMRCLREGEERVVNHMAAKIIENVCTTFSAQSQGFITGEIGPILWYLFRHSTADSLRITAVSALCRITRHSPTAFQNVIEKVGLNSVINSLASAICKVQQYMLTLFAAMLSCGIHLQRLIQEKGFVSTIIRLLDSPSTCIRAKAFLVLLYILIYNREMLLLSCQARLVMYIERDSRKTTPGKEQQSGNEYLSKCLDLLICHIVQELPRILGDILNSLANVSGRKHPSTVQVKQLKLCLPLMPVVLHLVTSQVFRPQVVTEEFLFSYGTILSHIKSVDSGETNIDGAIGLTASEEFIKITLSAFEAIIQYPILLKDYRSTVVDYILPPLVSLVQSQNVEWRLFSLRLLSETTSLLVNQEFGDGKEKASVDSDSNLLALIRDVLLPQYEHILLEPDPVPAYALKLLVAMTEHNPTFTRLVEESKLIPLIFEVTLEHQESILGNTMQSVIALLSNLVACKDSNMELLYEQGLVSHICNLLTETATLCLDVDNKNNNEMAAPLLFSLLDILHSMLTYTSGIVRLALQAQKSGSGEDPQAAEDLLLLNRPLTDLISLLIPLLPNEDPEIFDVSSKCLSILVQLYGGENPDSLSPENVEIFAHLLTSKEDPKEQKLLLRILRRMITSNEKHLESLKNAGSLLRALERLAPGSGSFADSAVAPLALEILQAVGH

In the test the target is C-terminally HA-tagged wild type human Ulk4 (Ulk4-WT–HA) (human) (UniProt Q96C45). Briefly: co-IP; HEK293T cells transfected with Fg-tagged and HA-tagged Ulk4 constructs, immunoprecipitation and western blot with the indicated antibodies (which tag was precipitated is not given). On the technique in general: A western blot detects proteins with antibodies after separation by electrophoresis.

Results are given in words; binding and its absence hold for the method and conditions named. Binding seen in cells or lysates may run through a third protein. Some binding calls cover weakened binding; strength is not graded here.

As to “Flag-tagged Ulk4-EE (Ulk4-EE–Fg), phospho-mimetic human Ulk4 T1021E/T1023E (from UniProt Q96C45 1-1275)”, the binding result is recorded as “binds”.
